The other results are listed elsewhere or left out.
Tests used:
Assay in all cases: log2 fold change, soluble protein after heating vs DMSO (PISA); higher = thermal stabilisation; K562 cells, 10 uM, 30 min; active = over 0.2 and 3.5 SD of the protein, either way, in both replicates (recomputed)
[1] = compound: C1=CC=C(C=C1)[C@H](COC2=CC3=C(C=C2)NC(=O)N3)NC(=O)C4=CC=CN(C4=O)CC5=CC(=C(C=C5)F)F
Method in brief: (§1)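 Soluble protein was quantified by TMTpro 16plex LC-MS/MS after channel sums were equalised. It was obtained as the supernatant after 21,000xg for 90 min from pooled aliquots of K562 cells (2×10^6 cells/mL, 10 μM compound, 30 min) heated for 3 min across 48°C-58°C and extracted in PBS with 0.5% NP-40 at 4°C. Thermal stability values are relative to control samples and come from duplicates. They are given as log2 fold changes.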

Chains of the proteins cited; added tags and fusions are not shown. Lines headed by an entry give the natural chain unless they say otherwise; changes in a name come on top.
UniProt Q9UL45: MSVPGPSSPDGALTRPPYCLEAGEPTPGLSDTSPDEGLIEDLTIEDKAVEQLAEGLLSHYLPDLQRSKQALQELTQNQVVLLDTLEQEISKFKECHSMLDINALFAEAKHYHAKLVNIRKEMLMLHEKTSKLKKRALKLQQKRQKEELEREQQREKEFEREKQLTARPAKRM
UniProt Q53S33: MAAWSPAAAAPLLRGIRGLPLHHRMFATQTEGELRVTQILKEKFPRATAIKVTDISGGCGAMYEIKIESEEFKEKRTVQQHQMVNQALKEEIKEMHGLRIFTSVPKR
UniProt Q6W2J9: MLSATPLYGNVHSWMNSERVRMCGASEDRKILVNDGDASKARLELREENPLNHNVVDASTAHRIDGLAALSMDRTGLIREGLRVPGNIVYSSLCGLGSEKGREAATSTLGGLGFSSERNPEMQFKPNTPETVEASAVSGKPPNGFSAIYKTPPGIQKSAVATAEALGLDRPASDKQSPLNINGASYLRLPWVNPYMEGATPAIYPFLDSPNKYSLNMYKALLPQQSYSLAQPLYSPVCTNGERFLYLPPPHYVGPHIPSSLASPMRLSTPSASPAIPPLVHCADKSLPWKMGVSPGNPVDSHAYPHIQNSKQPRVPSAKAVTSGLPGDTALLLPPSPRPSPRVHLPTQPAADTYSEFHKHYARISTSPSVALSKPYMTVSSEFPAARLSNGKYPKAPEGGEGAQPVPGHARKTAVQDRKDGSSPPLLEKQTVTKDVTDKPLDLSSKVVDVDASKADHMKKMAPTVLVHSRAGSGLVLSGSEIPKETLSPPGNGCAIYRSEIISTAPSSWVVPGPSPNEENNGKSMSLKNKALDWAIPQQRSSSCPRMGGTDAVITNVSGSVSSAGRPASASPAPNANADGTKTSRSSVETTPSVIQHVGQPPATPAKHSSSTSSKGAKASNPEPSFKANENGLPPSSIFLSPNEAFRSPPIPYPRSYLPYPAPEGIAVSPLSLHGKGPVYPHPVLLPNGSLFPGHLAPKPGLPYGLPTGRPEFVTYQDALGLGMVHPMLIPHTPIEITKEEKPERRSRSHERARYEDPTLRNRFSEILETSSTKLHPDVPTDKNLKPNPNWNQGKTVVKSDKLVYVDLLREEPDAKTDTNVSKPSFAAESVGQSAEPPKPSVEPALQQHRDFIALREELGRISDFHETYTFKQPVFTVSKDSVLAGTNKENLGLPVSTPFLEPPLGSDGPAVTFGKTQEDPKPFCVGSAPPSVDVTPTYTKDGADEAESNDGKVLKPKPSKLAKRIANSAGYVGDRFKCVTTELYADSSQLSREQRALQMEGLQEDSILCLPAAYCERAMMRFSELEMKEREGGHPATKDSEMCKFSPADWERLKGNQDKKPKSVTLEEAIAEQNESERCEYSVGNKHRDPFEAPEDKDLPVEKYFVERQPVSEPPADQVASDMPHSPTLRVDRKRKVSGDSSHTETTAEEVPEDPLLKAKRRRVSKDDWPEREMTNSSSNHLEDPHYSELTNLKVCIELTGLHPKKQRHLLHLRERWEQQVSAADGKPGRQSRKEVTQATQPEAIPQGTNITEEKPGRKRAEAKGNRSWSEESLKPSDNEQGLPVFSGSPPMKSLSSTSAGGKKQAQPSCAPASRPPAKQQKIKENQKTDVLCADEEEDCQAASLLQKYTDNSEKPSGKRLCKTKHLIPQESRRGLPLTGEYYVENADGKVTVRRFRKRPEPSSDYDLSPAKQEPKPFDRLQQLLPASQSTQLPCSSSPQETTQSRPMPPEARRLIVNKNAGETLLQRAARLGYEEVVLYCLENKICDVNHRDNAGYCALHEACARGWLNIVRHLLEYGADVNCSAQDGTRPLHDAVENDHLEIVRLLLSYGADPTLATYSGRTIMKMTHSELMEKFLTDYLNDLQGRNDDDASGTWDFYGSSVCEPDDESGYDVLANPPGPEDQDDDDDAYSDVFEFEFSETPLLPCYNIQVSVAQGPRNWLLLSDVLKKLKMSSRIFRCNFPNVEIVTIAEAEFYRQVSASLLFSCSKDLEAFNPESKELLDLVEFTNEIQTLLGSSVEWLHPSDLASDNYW
UniProt Q96G01: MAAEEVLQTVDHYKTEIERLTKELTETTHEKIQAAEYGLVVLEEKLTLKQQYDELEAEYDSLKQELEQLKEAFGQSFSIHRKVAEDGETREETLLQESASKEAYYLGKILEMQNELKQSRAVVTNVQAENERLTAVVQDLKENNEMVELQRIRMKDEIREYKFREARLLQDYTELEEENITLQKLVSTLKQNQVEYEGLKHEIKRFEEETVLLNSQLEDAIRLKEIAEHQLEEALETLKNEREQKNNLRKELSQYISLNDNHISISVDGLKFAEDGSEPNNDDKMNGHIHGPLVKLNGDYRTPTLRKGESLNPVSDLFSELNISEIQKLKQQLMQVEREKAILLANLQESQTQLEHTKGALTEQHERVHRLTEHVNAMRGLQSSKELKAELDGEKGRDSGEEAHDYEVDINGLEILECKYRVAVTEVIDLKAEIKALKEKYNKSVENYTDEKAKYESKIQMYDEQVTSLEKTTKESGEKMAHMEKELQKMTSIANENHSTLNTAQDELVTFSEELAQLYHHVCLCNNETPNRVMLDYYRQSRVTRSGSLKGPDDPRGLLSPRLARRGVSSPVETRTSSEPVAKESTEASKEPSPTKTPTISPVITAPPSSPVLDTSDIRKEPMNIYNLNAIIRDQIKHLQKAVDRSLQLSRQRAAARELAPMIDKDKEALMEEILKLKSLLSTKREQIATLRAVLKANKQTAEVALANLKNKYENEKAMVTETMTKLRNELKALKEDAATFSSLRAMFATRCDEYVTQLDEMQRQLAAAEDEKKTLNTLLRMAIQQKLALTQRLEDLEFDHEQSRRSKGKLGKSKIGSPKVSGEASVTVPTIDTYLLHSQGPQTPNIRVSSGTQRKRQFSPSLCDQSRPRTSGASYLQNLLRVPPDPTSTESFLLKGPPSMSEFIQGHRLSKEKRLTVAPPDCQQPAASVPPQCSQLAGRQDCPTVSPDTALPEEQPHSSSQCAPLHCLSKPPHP
UniProt O95861: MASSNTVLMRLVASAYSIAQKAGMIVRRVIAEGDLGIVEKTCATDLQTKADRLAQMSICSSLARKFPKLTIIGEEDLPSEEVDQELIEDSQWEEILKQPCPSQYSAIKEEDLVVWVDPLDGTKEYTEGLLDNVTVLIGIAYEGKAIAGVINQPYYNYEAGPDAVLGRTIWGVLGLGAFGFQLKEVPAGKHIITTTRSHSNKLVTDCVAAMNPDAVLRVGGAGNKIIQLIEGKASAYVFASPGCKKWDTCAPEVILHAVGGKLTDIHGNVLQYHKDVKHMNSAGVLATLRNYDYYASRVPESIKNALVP
UniProt O60512: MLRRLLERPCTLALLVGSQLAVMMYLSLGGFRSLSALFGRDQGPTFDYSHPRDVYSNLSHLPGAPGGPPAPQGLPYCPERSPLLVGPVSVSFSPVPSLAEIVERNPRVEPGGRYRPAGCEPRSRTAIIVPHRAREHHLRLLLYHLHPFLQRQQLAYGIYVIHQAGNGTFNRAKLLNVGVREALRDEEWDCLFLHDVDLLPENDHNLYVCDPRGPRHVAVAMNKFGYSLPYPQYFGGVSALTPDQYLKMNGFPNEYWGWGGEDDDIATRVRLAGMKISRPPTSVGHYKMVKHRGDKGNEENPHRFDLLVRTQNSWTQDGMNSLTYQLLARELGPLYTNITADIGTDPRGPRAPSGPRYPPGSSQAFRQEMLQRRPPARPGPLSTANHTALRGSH
UniProt Q9Y276: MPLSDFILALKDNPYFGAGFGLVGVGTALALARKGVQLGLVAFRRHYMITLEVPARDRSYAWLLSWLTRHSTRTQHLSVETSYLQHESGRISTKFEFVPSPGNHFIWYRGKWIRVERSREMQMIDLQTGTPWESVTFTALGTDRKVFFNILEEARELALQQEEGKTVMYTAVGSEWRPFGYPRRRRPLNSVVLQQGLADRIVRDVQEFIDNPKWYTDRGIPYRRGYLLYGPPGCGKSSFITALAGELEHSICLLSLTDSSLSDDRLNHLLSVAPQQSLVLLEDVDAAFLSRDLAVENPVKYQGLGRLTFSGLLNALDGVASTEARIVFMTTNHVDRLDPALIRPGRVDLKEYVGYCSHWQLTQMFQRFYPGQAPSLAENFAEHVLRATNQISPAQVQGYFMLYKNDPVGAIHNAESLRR
UniProt Q9NSY1, whole entry, looked up: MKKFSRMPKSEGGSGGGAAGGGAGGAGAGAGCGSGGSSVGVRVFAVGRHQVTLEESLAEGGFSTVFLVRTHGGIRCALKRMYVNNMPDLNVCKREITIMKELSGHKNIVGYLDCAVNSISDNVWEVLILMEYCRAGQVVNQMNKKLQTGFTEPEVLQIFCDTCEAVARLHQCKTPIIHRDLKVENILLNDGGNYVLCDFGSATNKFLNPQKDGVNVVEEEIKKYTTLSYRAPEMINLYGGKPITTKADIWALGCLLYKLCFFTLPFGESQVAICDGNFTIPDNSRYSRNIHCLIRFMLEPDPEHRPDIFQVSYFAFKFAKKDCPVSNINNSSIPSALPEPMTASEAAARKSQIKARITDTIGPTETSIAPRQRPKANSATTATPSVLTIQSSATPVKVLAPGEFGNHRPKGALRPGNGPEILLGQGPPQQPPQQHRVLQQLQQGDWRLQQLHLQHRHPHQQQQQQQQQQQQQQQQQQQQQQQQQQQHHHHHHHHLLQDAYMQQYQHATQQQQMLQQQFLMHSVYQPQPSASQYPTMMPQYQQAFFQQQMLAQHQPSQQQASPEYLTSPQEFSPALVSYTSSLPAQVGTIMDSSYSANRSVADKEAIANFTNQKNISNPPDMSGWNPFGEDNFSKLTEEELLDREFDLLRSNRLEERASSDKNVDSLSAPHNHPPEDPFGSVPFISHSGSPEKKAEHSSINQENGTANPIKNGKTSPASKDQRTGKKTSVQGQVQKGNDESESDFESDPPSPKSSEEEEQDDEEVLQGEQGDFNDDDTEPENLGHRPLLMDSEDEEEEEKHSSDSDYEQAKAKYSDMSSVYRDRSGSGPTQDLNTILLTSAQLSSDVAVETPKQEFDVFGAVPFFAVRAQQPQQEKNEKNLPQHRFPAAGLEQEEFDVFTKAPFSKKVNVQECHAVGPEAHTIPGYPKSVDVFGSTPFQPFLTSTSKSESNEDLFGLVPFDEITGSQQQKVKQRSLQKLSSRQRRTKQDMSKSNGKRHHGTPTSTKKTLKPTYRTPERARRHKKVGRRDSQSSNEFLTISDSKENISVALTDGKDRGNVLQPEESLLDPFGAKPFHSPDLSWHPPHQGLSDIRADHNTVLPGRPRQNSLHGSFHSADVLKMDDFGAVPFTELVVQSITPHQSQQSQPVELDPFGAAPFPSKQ
UniProt P25440, whole entry, looked up: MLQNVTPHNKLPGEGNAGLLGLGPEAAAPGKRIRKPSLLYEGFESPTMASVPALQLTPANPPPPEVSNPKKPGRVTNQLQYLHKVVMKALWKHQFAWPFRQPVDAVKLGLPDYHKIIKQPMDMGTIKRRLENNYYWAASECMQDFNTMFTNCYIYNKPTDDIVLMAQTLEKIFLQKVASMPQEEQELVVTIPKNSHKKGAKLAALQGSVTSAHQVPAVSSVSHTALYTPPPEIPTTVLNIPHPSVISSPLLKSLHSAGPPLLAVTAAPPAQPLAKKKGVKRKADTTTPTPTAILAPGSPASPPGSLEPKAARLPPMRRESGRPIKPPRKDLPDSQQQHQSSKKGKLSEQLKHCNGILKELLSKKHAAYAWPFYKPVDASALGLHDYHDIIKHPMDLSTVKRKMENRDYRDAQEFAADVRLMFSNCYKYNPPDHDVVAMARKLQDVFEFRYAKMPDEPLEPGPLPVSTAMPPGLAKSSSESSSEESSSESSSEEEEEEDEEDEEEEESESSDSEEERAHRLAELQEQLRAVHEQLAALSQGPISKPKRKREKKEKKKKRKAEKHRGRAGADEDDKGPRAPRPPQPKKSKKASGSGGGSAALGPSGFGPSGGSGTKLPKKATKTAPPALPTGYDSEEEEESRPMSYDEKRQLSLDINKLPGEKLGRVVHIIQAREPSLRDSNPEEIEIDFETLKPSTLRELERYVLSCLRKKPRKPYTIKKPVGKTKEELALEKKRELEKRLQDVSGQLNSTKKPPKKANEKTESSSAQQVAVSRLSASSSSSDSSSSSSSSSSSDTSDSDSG
UniProt Q9UHQ4: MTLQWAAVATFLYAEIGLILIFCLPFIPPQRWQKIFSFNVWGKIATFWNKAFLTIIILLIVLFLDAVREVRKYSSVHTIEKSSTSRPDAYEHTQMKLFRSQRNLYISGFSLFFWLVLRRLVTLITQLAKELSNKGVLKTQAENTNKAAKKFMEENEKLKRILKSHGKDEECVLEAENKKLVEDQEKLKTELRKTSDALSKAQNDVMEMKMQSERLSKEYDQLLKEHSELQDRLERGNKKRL
UniProt O95816: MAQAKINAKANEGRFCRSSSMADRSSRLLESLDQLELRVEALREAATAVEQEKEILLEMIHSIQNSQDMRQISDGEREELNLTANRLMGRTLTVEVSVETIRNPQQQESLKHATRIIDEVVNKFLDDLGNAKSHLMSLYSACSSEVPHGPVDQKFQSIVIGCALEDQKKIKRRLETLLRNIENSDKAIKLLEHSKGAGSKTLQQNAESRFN

[2] = compound: CC1=C(SC2=C1C(=N[C@H](C3=NN=C(N32)C)CC(=O)N)C4=CC=C(C=C4)Cl)C
Method in brief: as §1

[3] = compound: CC1=C2C(=CC=C1)N=C(N(C2=O)C3=CC=CC=C3C)CN4C=NC5=C(N=CN=C54)N
Method in brief: as §1

[4] = compound: Cc1sc2c(c1C)C(c1ccc(Cl)cc1)=N[C@@H](CC(=O)OC(C)(C)C)c1nnc(C)n1-2
Method in brief: as §1

[5] = compound: c1ccc([C@@H]2C[C@H]2NC2CCNCC2)cc1
Method in brief: as §1

Measured: log2 fold change

BLOC1S6 (UniProt Q9UL45)
inactive: [1] -0.003 | [2] -0.002 | [3] 0.017 | [4] -0.012 | [5] -0.032

BOLA3 (UniProt Q53S33)
inactive: [1] 0.023 | [2] 0.027 | [3] 0.046 | [4] -0.017 | [5] -0.011

BAG5 isoform 2 (UniProt Q9UL15)
inactive: [1] -0.099 | [2] 0.062 | [3] 0 | [4] -0.025 | [5] -0.067

BMS1 (UniProt Q14692)
inactive: [1] 0.075 | [2] -0.225 | [3] -0.167 | [4] 0.132 | [5] -0.011

BAG3 (UniProt O95817)
inactive: [1] 0.036 | [2] 0.03 | [3] 0.031 | [4] 0.008 | [5] 0.016

BAG6 isoform 3 (UniProt P46379)
inactive: [1] 0.004 | [2] 0.066 | [3] 0.019 | [4] 0.043 | [5] -0.023

BCOR (UniProt Q6W2J9)
inactive: [1] 0.042 | [2] -0.049 | [3] 0.318 | [4] 0.135 | [5] 0.055

BORCS5 (UniProt Q969J3)
inactive: [1] -0.017 | [2] 0.005 | [3] -0.13 | [4] -0.076 | [5] 0.022

BICD1 (UniProt Q96G01)
inactive: [1] -0.091 | [2] 0.057 | [3] 0.088 | [4] 0.024 | [5] -0.053

BIRC5 (UniProt O15392)
inactive: [1] -0.03 | [2] -0.127 | [3] -0.104 | [4] -0.065 | [5] 0.037

BPNT1 (UniProt O95861)
inactive: [1] 0.026 | [2] 0.006 | [3] 0.013 | [4] -0.025 | [5] 0.007

B4GALT3 (UniProt O60512)
inactive: [1] 0.046 | [2] 0.088 | [3] 0.002 | [4] 0.026 | [5] 0.173

BIRC6 (UniProt Q9NR09)
inactive: [1] 0.01 | [2] -0.001 | [3] 0.027 | [4] 0.016 | [5] 0.003

BCS1L (UniProt Q9Y276)
inactive: [1] 0.049 | [2] 0.031 | [3] 0.004 | [4] -0.042 | [5] -0.009

BMP2K (UniProt Q9NSY1)
inactive: [1] 0.015 | [2] 0 | [3] -0.018 | [4] 0.035 | [5] -0.001

BRIP1 (UniProt Q9BX63)
inactive: [1] 0.042 | [2] -0.005 | [3] 0 | [4] -0.042 | [5] 0.122

BECN1 (UniProt Q14457)
inactive: [1] -0.071 | [2] 0.061 | [3] -0.017 | [4] 0.021 | [5] 0.05

ATXN2L (UniProt Q8WWM7)
inactive: [1] -0.003 | [2] -0.009 | [3] -0.013 | [4] 0.012 | [5] 0.009

BRD2 isoform 2 (UniProt P25440)
active: [2] 2.34 | [4] 2.33
inactive: [1] -0.257 | [3] 0.092 | [5] 0.029

BCL2L2 isoform 2 (UniProt Q92843)
inactive: [1] 0.045 | [2] -0.017 | [3] 0.053 | [4] 0.111 | [5] 0.083

AZGP1 (UniProt P25311)
inactive: [1] -0.047 | [2] 0.117 | [3] -0.165 | [4] -0.487 | [5] -0.186

BLOC1S5 (UniProt Q8TDH9)
inactive: [1] -0.037 | [2] 0.024 | [3] 0.148 | [4] -0.048 | [5] 0.014

BCAP29 isoform 2 (UniProt Q9UHQ4)
inactive: [1] -0.017 | [2] 0.029 | [3] 0.035 | [4] -0.008 | [5] 0.032

BABAM2 (UniProt Q9NXR7)
inactive: [1] 0.061 | [2] 0.005 | [3] -0.038 | [4] 0.015 | [5] -0.021

BCL10 (UniProt O95999)
inactive: [1] -0.111 | [2] -0.106 | [3] 0.059 | [4] 0.017 | [5] 0.006

BAG2 (UniProt O95816)
inactive: [1] 0.022 | [2] -0.101 | [3] -0.17 | [4] 0.148 | [5] 0

Fetched one by one from the entries so far (2):
BCL2L2 isoform 2 (UniProt Q92843)
inactive: [1] 0.045 | [2] -0.017 | [3] 0.053 | [4] 0.111 | [5] 0.083

BPNT1 (UniProt O95861)
inactive: [1] 0.026 | [2] 0.006 | [3] 0.013 | [4] -0.025 | [5] 0.007

From the supplement of paper PMC10849652
